According to patent US20040018580A1, “Synthetic substrates for prostasin” (priority 2002, published 2004):
These are yes or no findings as the source states them, for the method shown. A result given as binding can be weak or reduced; the word gives no strength.

Assays:
thrombin [1] = test: complex formation in the presence of heparin, western blot
thrombin [2] = test: complex formation at different pH, western blot

B1: mouse prostasin-binding protein (mPBP) (protein, UniProt Q07235 20-397, looked up)
chain: SQFNSLSLEELGSNTGIQVFNQIIKSRPHENVVVSPHGIASILGMLQLGADGKTKKQLSTVMRYNVNGVGKVLKKINKAIVSKKNKDIVTVANAVFLRNGFKMEVPFAVRNKDVFQCEVQNVNFQDPASASESINFWVKNETRGMIDNLLSPNLIDGALTRLVLVNAVYFKGLWKSRFQPESTKKRTFVAGDGKSYQVPMLAQLSVFRSGSTRTPNGLWYNFIELPYHGESISMLIALPTESSTPLSAIIPHITTKTIDSWMNTMVPKRMQLVLPKFTAVAQTDLKEPLKALGITEMFEPSKANFTKITRSESLHVSHILQKAKIEVSEDGTKASAATTAILIARSSPPWFIVDRPFLFSIRHNPTGAILFLGQVNKP
- binding (thrombin [1]): binds
- binding (thrombin [2]): binds
